Results on three sequences are retold here after patent US5731411.

For some assays here: For at least one entry, the source does not settle the construct or the ends of the probe.

Data set [1] addresses RecA (UniProt P0A7G6). Briefly: footprint. The conditions noted are these: permanganate hypermodification; 10 mM MgCl2, ATPgammaS, ADP, 37 C; also forms joint molecules (Example 5); purified recombinant protein; label: 5' 32P; single-stranded DNA.
Data set [2] addresses WECO (RecA 193-212 F203W peptide) (Escherichia coli) (UniProt P0A7G8). Kind of data set: filter binding. The conditions noted are these: 10 mM MgCl2, pH 8.3, synthetic protein, protein details: synthetic peptide, HPLC purified.
Data set [3] shares this target. Briefly: binding assay. Conditions: CD, beta structure, 278 nm band reduced, pH 6.0; synthetic protein; protein details: synthetic peptide, HPLC purified; single-stranded DNA.
Data set [4] deals with FECO (RecA residues 193-212 peptide) (Escherichia coli) (UniProt P0A7G8). Kind of data set: filter binding. Conditions: 10 mM MgCl2, pH 8.3, room temp; less tight without Mg; no distinct dsDNA unstacking; synthetic protein; protein details: synthetic peptide, HPLC purified; label: 5' 32P on BS-S1.

On to “GGCCGCTCTAGAACTAGTGGATCCCCCGGGCTGCAGGAATTCGATATCAAGCT [BS-S1 ssDNA]”, for which, in data set [1], the “activity on this sequence” value is “active”. In addition, the binding result in data set [2] (higher DNA affinity than FECO, unstacks ssDNA, forms joint molecules (Example 5), label: 5' 32P, single-stranded DNA) was “binds”.

Regarding “CTGTCTACTCTCGAGGTTAACCCGTGCGAATTCTACGATTGGTGCGGCCGGTATATC [57-mer ssDNA]”, the binding result in data set [3] is listed as “binds”.

For “GGCCGCTCTAGAACTAGTGGATCCCCCGGGCTGCAGGAATTCGATATCAAGCT / AGCTTGATATCGAATTCCTGCAGCCCGGGGATCCACTAGTTCTAGAGCGGCC [BS-S1/BS-S2 duplex]”, the binding result in data set [2] (less tight without Mg, label: 5' 32P on BS-S1) is reported as “binds”; in data set [4], “binds”.
